Assay results reported in doi:10.1101/2025.10.30.685566.
Results are given in words; binding and its absence hold for the method and conditions named. Binding seen in cells or lysates may run through a third protein. Some results given as binding are weak or reduced against the parent protein; the word gives no strength. Tags and fused reporters may be left off the sequences shown.

By UniProt entry, the sequences of proteins in these tests, tags left out.
UniProt Q5T5P2: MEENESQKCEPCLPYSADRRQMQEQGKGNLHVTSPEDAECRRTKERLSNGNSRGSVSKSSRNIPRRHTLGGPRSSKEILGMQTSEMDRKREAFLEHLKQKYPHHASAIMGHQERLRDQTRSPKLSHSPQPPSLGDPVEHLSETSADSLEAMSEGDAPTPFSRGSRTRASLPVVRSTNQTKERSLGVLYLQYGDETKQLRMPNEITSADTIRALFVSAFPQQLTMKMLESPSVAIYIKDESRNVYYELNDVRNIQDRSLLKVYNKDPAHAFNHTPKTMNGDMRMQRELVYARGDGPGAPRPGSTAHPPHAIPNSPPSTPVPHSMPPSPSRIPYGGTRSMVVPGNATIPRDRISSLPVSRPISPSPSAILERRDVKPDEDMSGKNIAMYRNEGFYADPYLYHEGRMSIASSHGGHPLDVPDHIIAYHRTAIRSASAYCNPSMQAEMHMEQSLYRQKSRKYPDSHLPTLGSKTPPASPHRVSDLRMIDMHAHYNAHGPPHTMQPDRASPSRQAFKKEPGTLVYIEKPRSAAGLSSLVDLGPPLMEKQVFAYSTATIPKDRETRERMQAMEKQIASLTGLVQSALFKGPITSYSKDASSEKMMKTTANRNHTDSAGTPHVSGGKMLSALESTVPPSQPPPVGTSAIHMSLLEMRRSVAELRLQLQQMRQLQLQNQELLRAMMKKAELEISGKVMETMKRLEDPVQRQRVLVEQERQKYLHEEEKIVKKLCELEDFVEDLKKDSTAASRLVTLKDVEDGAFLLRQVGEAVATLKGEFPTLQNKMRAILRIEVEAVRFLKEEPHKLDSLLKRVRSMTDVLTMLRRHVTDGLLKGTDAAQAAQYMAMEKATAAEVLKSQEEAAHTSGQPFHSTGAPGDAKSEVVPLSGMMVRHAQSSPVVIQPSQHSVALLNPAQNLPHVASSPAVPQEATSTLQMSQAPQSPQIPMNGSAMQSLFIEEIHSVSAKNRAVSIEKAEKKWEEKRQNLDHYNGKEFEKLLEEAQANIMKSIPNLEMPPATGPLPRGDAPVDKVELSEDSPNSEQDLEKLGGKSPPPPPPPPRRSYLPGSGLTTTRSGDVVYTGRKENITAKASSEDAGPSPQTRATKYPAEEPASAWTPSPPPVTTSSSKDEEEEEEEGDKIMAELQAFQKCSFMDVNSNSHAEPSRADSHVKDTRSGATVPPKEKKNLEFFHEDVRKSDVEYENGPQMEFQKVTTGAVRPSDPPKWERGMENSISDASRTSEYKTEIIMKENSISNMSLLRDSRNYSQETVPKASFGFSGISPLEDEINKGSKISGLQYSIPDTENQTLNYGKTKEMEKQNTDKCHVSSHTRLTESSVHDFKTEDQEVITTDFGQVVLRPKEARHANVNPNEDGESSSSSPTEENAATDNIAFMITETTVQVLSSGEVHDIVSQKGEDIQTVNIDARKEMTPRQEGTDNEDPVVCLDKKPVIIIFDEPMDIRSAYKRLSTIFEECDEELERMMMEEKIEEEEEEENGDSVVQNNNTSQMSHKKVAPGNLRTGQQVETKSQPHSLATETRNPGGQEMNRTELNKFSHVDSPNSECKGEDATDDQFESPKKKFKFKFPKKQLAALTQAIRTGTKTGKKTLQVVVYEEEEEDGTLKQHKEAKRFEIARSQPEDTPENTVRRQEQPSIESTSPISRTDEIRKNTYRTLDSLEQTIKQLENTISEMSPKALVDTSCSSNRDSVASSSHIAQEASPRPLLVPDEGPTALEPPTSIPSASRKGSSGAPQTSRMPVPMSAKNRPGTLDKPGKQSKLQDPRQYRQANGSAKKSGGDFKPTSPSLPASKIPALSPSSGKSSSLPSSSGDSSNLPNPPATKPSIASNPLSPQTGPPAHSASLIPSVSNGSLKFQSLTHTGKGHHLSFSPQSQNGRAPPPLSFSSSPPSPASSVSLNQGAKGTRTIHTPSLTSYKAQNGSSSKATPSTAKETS

Molecular target: GFP-KIAA1217 (human) (UniProt Q5T5P2)
Test: co-IP

B1: p140Cap-Flag (protein, UniProt Q9C0H9 1-1183)
chain: MGNAPSQDPERSSPPMLSADDAEYPREYRTLGGGGGGGSGGRRFSNVGLVHTSERRHTVIAAQSLEALSGLQKADADRKRDAFMDHLKSKYPQHALALRGQQDRMREQPNYWSFKTRSSRHTQGAQPGLADQAAKLSYASAESLETMSEAELPLGFSRMNRFRQSLPLSRSASQTKLRSPGVLFLQFGEETRRVHITHEVSSLDTLHALIAHMFPQKLTMGMLKSPNTAILIKDEARNVFYELEDVRDIQDRSIIKIYRKEPLYAAFPGSHLTNGDLRREMVYASRESSPTRRLNNLSPAPHLASGSPPPGLPSGLPSGLQSGSPSRSRLSYAGGRPPSYAGSPVHHAAERLGGAPAAQGVSPSPSAILERRDVKPDEDLASKAGGMVLVKGEGLYADPYGLLHEGRLSLAAAAGDPFAYPGAGGLYKRGSVRSLSTYSAAALQSDLEDSLYKAAGGGGPLYGDGYGFRLPPSSPQKLADVAAPPGGPPPPHSPYSGPPSRGSPVRQSFRKDSGSSSVFAESPGGKTRSAGSASTAGAPPSELFPGPGERSLVGFGPPVPAKDTETRERMEAMEKQIASLTGLVQSALLRGSEPETPSEKIEGSNGAATPSAPCGSGGRSSGATPVSGPPPPSASSTPAGQPTAVSRLQMQLHLRGLQNSASDLRGQLQQLRKLQLQNQESVRALLKRTEAELSMRVSEAARRQEDPLQRQRTLVEEERLRYLNDEELITQQLNDLEKSVEKIQRDVSHNHRLVPGPELEEKALVLKQLGETLTELKAHFPGLQSKMRVVLRVEVEAVKFLKEEPQRLDGLLKRCRGVTDTLAQIRRQVDEGVWPPPNNLLSQSPKKVTAETDFNKSVDFEMPPPSPPLNLHELSGPAEGASLTPKGGNPTKGLDTPGKRSVDKAVSVEAAERDWEEKRAALTQYSAKDINRLLEETQAELLKAIPDLDCASKAHPGPAPTPDHKPPKAPHGQKAAPRTEPSGRRGSDELTVPRYRTEKPSKSPPPPPPRRSFPSSHGLTTTRTGEVVVTSKKDSAFIKKAESEELEVQKPQVKLRRAVSEVARPASTPPIMASAIKDEDDEDRIIAELESGGGSVPPMKVVTPGASRLKAAQGQAGSPDKSKHGKQRAEYMRIQAQQQATKPSKEMSGSNETSSPVSEKPSASRTSIPVLTSFGARNSSISF
For B1, the binding was “binds”.
